Assay results published in patent US20120283283A1, “METHODS FOR DETECTING ENHANCED RISK OF OPIOID-INDUCED HYPOXIA IN A PATIENT” (priority 2011, published 2012).

What was measured:
[1] = system: patients with moderate to severe postoperative pain following bunionectomy surgery; test: Three double blind, randomized clinical studies (007, 008, 021): oxygen desaturation (SpO2<90%) by pulse oximetry during 48 hour treatment
Method: Oxygen saturation was measured continuously during baseline and the 48 hour treatment periods using pulse oximetry. The total number and percentage of patients with oxygen desaturation (SpO2<90%) were recorded at: 0, 15, 30 and 45 minutes, and 1, 2, 3, 4, 5, 6 and 8 hours after study drug administration; at the time of administration of subsequent doses of study medication; at the time of administration of supplemental analgesic medication; 1 hour after administration of study medication; and whenever a desaturation occurred during the dosing period.
Respiration rate (<10 breaths/min, 10-12 breaths/min, >12 breaths/min) was summarized at the same time points as the SpO2 recordings. Cumulative MED was determined at the time of the first episode of SpO2<90%. All desaturations and use of supplemental oxygenation, use of narcotic antagonists against respiratory impairment, and respiratory related serious adverse events (SAEs) were recorded.
In subjects with oxygen desaturation the following data was recorded: cumulative MED at first desaturation; mean desaturation values; number of desaturation episodes; and total duration of desaturation episodes.
Some patients in the three clinical studies were enrolled who resided near study sites that are located at an altitude of about or over 4000 feet above sea level.

[2] = system: patients with postoperative pain; conditions: 1 mg bolus doses, 5-10 min lockout period, PCA; cited from earlier work

## CN1CC[C@]23c4c5ccc(O)c4O[C@H]2[C@@H](O)C=C[C@H]3[C@H]1C5.O=S(=O)(O)O [morphine, morphine sulfate]
[1]; 12 mg MED, lower elevation / non-high altitude sites
  incidence of desaturation (SpO2<90%): 1.6%
[1]; cumulative MED at first desaturation
  cumulative dose before experiencing an oxygen desaturation event (SpO2<90%): 24 mg
[1]; morphine or oxycodone alone
  incidence of desaturation at high elevation site compared to lower sites: nearly six-fold
[2]
  subjects who experienced respiratory dysfunction: about 2%
